Data as given in PubChem BioAssay AID1053208 (Peter MacCallum Cancer Centre, 2014).

- Assay: 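Synthetic lethal interactions between gene loss and doxorubicin in osteosarcoma cells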 (primary screen)
- System: mouse osteosarcoma cells, early-passage culture from an engineered mouse model of fibroblastic bone tumour
- Reagents: siRNA pool against mouse genes, 40 nM
- Time to read-out: about 120 h (48 h before drug, then 72 h with drug)
- Treatment: doxorubicin 100 nM for 72 h, roughly 30-40% inhibitory dose
- Read-out: 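Luminescent ATP signal taken as viability with or without 100 nM doxorubicin for 72 h; mean of two wells set against non-targeting siRNA and turned into robust z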
- Scale: viability z-score with doxorubicin: higher = more viable cells under doxorubicin; viability z-score without drug: higher = more viable cells with knock-down alone
- Call rule: 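Called active if knock-down leaves viability unchanged without drug (z within -2 to 2) but lowers it with doxorubicin (z at or under -2)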
In all, the deposit lists about 17,000 reagents; below is a part drawn at random. Of all reagents, 788 (4.7%) got an active call. 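Calls rest on z-score classes alone; an extra cut-off of viability at most 70% of control was not applied to them.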 Entries without a mark were called inactive. Further read-outs or replicates are left out here.

| gene symbol | combined z-score class | viability z-score with doxorubicin | viability z-score without drug |
| --- | --- | --- | --- |
| Cryzl1 | no change with or without drug | -1.24 | -0.17 |
| Otx1 | no change with or without drug | 1.8 | 0.84 |
| Ramac | no change with or without drug | 1.69 | 0.84 |
| Mrgprb3 | no change with or without drug | 1.8 | -1.52 |
| 4930590J08Rik | no change with or without drug | 0.22 | -0.84 |
| Pglyrp4 | low cell count with doxorubicin only (active) | -2.7 | -1.18 |
| Brd2 | no change with or without drug | 0 | -0.17 |
| Or5h26 | no change with or without drug | -0.45 | -0.17 |
| Mfsd8 | no change with or without drug | 0.9 | 0.34 |
| Tram1l1 | no change with or without drug | 0.45 | -1.52 |
| Klc4 | low cell count with doxorubicin only (active) | -2.36 | 1.18 |
| Mro | no change with or without drug | 0.34 | -1.52 |
| Fbln7 | high cell count with and without drug | 2.02 | 2.19 |
| Or12e9 | no change with or without drug | 0 | 0.51 |
| Kcnj6 | no change with or without drug | 1.01 | -0.84 |
| Mtfp1 | no change with or without drug | -1.57 | -1.18 |
| Stat6 | no change with or without drug | 0.34 | 1.18 |
| Or4d2b | no change with or without drug | -0.67 | -0.51 |
| Pced1a | no change with or without drug | 0.34 | -0.84 |
| Stx7 | no change with or without drug | 1.24 | 0.51 |
| Gstk1 | no change with or without drug | 0.9 | 0.51 |
| Dmrtc1a | no change with or without drug | 1.8 | 1.35 |
| Pofut1 | no change with or without drug | 0 | 0.51 |
| Prmt5 | no change with or without drug | 0.22 | -0.84 |
| Mif | no change with or without drug | 1.01 | 0 |
| Rsl24d1 | low cell count without drug only | -0.67 | -3.2 |
| Rnls | no change with or without drug | -0.9 | 0.34 |
| Actn2 | no change with or without drug | -0.45 | 0.17 |
| Acsm5 | no change with or without drug | -0.11 | 0.51 |
| Ring1 | no change with or without drug | 0 | 1.01 |
| Calb1 | no change with or without drug | 0.11 | -0.34 |
| Trabd | no change with or without drug | 0.11 | 0.84 |
| Lin9 | no change with or without drug | 1.12 | 0.34 |
| Or7a41 | no change with or without drug | -0.45 | -1.85 |
| Nfam1 | no change with or without drug | -0.11 | 0.17 |
| Pla2g10 | no change with or without drug | -0.34 | -0.17 |
| Triobp | no change with or without drug | 1.24 | -0.17 |
| 2310022B05Rik | no change with or without drug | 1.35 | 0.34 |
| Ackr2 | no change with or without drug | 0.67 | -0.17 |
| Samd13 | no change with or without drug | -1.57 | 1.18 |
| Stac2 | no change with or without drug | 1.46 | 0.17 |
| Meox2 | no change with or without drug | -0.22 | 0 |
| Polr1e | low cell count with doxorubicin only (active) | -2.02 | 0 |
| Lrrc3b | no change with or without drug | 0.34 | -0.84 |
| Pkdcc | no change with or without drug | -0.11 | -1.52 |
| Lsm5 | no change with or without drug | 0.22 | -0.51 |
| Jmjd8 | no change with or without drug | 1.01 | 1.35 |
| Ttc39a | no change with or without drug | -1.57 | -0.17 |
| Or4c120 | high cell count without drug only | 1.12 | 2.19 |
| Taf12 | no change with or without drug | -1.35 | 0 |
